# Source: PubChem BioAssay AID1458 (National Center for Advancing Translational Sciences (NCATS), 2008)
# The whole screen tested about 210,000 compounds, of which about 5,900 (2.8%) were called active. Inconclusive results (about 5%) are left out. The call rests on the fitted dose curve; in most records, active means well fitted activation curve with a large enough effect; inconclusive means small, poorly fitted or top-dose-only effect; inactive means no such curve, though single readings can be large or run the other way. This is a selection; strong and weak results do not stand in their true shares. Entries without a call were filed so in the source.
# Assay: qHTS Assay for Enhancers of SMN2 Splice Variant Expression; further: nearly all actives have a fitted effect of over 55% in size; on activity change, positive = activation: % of control where 0% means no effect
# Settings: HEK293 SMN2-luciferase splicing reporter, luminescence, 30-36 h; activity change, positive = activation: at 46.1 µM (top of the series) unless noted
# How it was run: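 HEK293 cells carry an SMN2 […]–luciferase reporter in which exon 7 inclusion puts luciferase in frame. Cells were plated 10-12 h before compound addition, then incubated 30-36 h at 37C. ONE-Glo luminescence was read; sodium butyrate at 4.5 mM final served as control.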
# Potency means the concentration at half of the fitted maximal effect.
Compound,"activity change, positive = activation",Potency
c1ccc2c(-c3nc(C4CCCCC4)no3)cc(-c3ccncc3)nc2c1,-80.8%,–
COCCOC(=O)c1[nH]c2c(c1C)C(=O)CC(c1cccs1)C2 (configuration not stated),inactive: -57%,–
CC(=O)SCC(=O)N=c1sc2cc(F)ccc2n1C,inactive: -19.1%,–
Cc1ccc(NC(=O)/C=C/c2ccco2)nc1,–,active: 14.1 µM
CC(C)OC(=O)c1ccc(NC(=O)c2ccco2)cc1,93.4%,–
Cc1ccc(S(=O)(=O)Nc2cc(Cl)c(O)cc2C)cc1,-42.4%,–
NC(=O)c1ccccc1N/C=C/C(=O)c1ccco1,–,active: 11.2 µM
CC1=NN(c2ccccc2)C(=O)/C1=C\C=C1/N(C)c2ccccc2C1(C)C,inactive: -21.6%,–
Cc1ccc(O)c(C(=O)c2cnc3c(c2)CN(C)C(=O)N3)c1,34.2%,–
O=C(Oc1c(CN2CCOCC2)cc(Cl)c2cccnc12)c1ccc(F)cc1,-57.2%,–
CCOc1ccc(NC(=O)c2ccc3c(SCC(=O)O)c4c(nc3c2)CCC4)cc1,inactive: -64.8%,–
O=C(Nc1nc2ccc(F)cc2s1)C1CCCO1 (configuration not stated),–,active: 15.8 µM
O=c1[nH]c2cc3c(cc2cc1C(c1nnnn1Cc1ccccc1)N1CCN2CCCC2C1)OCCO3 (configuration not stated),37.8%,–
COc1cc2ncnc(Nc3cccc(Cl)c3)c2cc1OC,–,inactive
COCCn1nnnc1C(c1ccc(OC)cc1OC)N1CCN(c2ccccc2)CC1 (configuration not stated),34.9%,–
CC(C)CN(C(=O)c1ccc(=O)n(C)n1)c1nc2ccccc2s1,–,active: 20 µM
Cc1cccc(NC(=O)Cc2coc3ccc4ccccc4c23)n1,30.7%,–
N#Cc1ccccc1OCCN1C(=O)c2ccccc2C1=O,53.2%,–
CC1(C)OC2CC3C4CC(F)C5=CC(=O)CC[C@@]5(C)C4C(O)C[C@@]3(C)[C@]2(C(=O)CO)O1 (some centres not stated),inactive: 4.91%,–
CC(=O)c1c(C)[nH]c(C(=O)OCC(=O)Nc2ccccc2Cl)c1C,-62.7%,–
CC(C)n1c(SCC(=O)NCc2ccco2)nc2c1c(=O)n(C)c(=O)n2C,31.9%,–
O=C1OCCC1Sc1nnc(-c2ccccc2Cl)n1Cc1ccccc1 (configuration not stated),21.5%,–
O=C(CSc1ncnc2sc3c(c12)CCCC3)N1CCC(c2noc3ccc(F)cc23)CC1,inactive: -49.9%,–
O=C(c1ccc(-c2nc3ccccc3s2)s1)N1CCOCC1,-63.4%,–

# Entries listed so far containing a halogen:
Compound,"activity change, positive = activation",Potency
CC(=O)SCC(=O)N=c1sc2cc(F)ccc2n1C,inactive: -19.1%,–
Cc1ccc(S(=O)(=O)Nc2cc(Cl)c(O)cc2C)cc1,-42.4%,–
O=C(Oc1c(CN2CCOCC2)cc(Cl)c2cccnc12)c1ccc(F)cc1,-57.2%,–
O=C(Nc1nc2ccc(F)cc2s1)C1CCCO1 (configuration not stated),–,active: 15.8 µM
COc1cc2ncnc(Nc3cccc(Cl)c3)c2cc1OC,–,inactive
CC1(C)OC2CC3C4CC(F)C5=CC(=O)CC[C@@]5(C)C4C(O)C[C@@]3(C)[C@]2(C(=O)CO)O1 (some centres not stated),inactive: 4.91%,–
CC(=O)c1c(C)[nH]c(C(=O)OCC(=O)Nc2ccccc2Cl)c1C,-62.7%,–
O=C1OCCC1Sc1nnc(-c2ccccc2Cl)n1Cc1ccccc1 (configuration not stated),21.5%,–
O=C(CSc1ncnc2sc3c(c12)CCCC3)N1CCC(c2noc3ccc(F)cc23)CC1,inactive: -49.9%,–

# Further entries

Compound,"activity change, positive = activation",Potency
c1ccc(Nc2nc(N3CCOCC3)c3ccccc3n2)cc1,-42%,–
COc1ccccc1CC(=O)Nc1ccc(O)cc1C(=O)O,45.7%,–
Cc1cccc(NC(=O)Cn2cc([N+](=O)[O-])cn2)n1,-34.1%,–
O=C(O)C1CC=C(Cl)CC1C(=O)NCc1ccccc1 (configuration not stated),29%,–
O=C(CSc1nnnn1-c1ccccc1)CC(=O)Nc1ccc(Cl)cc1,inactive: -48%,–
O=C(NCCc1ccccn1)c1ccc(OC(F)F)cc1,–,active: 11.2 µM
Nc1ccc2c(c1)C(=O)N(CCCC(=O)O)C2=O,34.2%,–
CC(=O)Oc1ccccc1C1OCCN1C(C)=O (configuration not stated),33.3%,–
CC(=O)Nc1cc2nn(-c3ccccc3)nc2cc1Cl,–,active: 11.2 µM
COc1ccc(F)cc1S(=O)(=O)n1cc(C)nc1-c1ccccc1,–,active: 3.55 µM
CCOc1ccc(C2c3c(oc4ccccc4c3=O)C(=O)N2CCCN2CCOCC2)cc1 (configuration not stated),42.1%,–
Cc1cccc(OCCSc2nncn2C)c1,42.7%,–
COc1ccccc1-n1c(=S)sc2c(=O)n(Cc3ccco3)c(SC)nc21,18.7%,–
COC(=O)c1ccc(NN=Nc2ccc(C)cc2)cc1,–,active: 11.2 µM
CCn1cnc2sc(-c3ccccc3)cc2c1=O,–,active: 10 µM
NNC(=O)c1cccc(COc2ccc(Br)cc2)c1,–,active: 1 µM
S=C(c1ccc(-c2cccc(Cl)c2)o1)N1CCCCC1,–,active: 11.2 µM
CC(C)Cn1c(SCc2nc3ccccc3c(=O)[nH]2)nc2ccccc2c1=O,inactive: -30.7%,–
Cc1ccc2cc(C)c(N3CCN(c4ccccn4)CC3)nc2c1,-37.7%,–
CC(=O)N/C(=C\c1cccs1)C(=O)O,inactive: -14.3%,–
CCn1c(/C=C2/C(=O)N(C)c3ccccc32)nc2ccccc2c1=O,-52%,–
CCN(CC)S(=O)(=O)c1ccc(Cl)c(NC(=O)COC(=O)c2c(C)noc2C)c1,inactive: -38.2%,–
O=C(c1cc2ccccc2oc1=O)N1CCN(Cc2ccc3c(c2)OCO3)CC1,28.4%,–
CCOC(=O)c1c(C)[nH]c(C(=O)Nc2ccc3c(c2)OCO3)c1C,241%,–

Compound,"activity change, positive = activation",Potency
Cc1ccnc(NS(=O)(=O)c2ccc(NC(=O)C3COc4ccccc4O3)cc2)n1 (configuration not stated),42.7%,–
CCCOc1ccccc1C1NC(=O)NC(C)=C1C(=O)OCc1ccccc1 (configuration not stated),-31.6%,–
CC(C)c1cc(C(=O)NCCc2ccccc2)no1,302%,–
COC(=O)c1ccccc1NC(=O)c1ccc(-c2ccccc2F)o1,–,active: 5.01 µM
S=C(Nc1ccc(Br)cc1)N1CCCC1,–,active: 8.91 µM
c1ccc2c(COn3nnc4ccccc43)cccc2c1,32.5%,–
Cc1cc(NC(c2nnc(-c3ccccc3)o2)c2ccccc2F)ccc1Br (configuration not stated),55.5%,–
O=c1c(Cl)c(N2CCCCC2)cnn1-c1nc2ccccc2[nH]1,inactive: -62.7%,–
CS(=O)(=O)N1CCc2cc(-c3csc(NC(=O)Cc4cccs4)n3)ccc21,-49.1%,–
O=C(CSc1nnnn1-c1ccc(F)cc1)NC1CCCCC1,35.4%,–
Cn1cnc2c1c(=O)n(Cc1c(Cl)cccc1Cl)c(=O)n2C,36.3%,–
CS(=O)(=O)N1CCc2cc(S(=O)(=O)Nc3ccc4c(c3)OCCO4)ccc21,-35.3%,–
N#CCCN(Cc1cccnc1)C(=O)c1sc2cc(F)ccc2c1Cl,-55.7%,–
CCSc1nnc(NC(=O)CSc2nnc(Cc3cccn3C)n2CCc2ccccc2)s1,33.1%,–
COc1ccccc1-n1c(CNC(=O)c2ccco2)nnc1SCC(=O)Nc1cc(C)ccc1C,inactive: -37.1%,–
CC(C)(C)c1ccc(OCC(=O)N2CCCCCC2)c(Br)c1,–,active: 12.6 µM
CC1=Nn2c(nnc2-c2ccccc2F)SC1,30.7%,–
Cc1ccc(N=Nc2c(=O)[nH]n3c(=O)cc(C)[nH]c23)cc1,inactive: -36.9%,–
COCc1cc(C)nc(N2CCCCC2)c1C#N,23.8%,–
Cc1nn(CCC(=O)NNC(=S)Nc2ccc(F)cc2)c(C)c1Br,6.31%,–
C/C(NCC(C)(C)CN(C)C)=C(/C#N)C(=O)NCc1ccccc1,37.4%,–
Cn1c(=NC(=O)CCl)sc2ccccc21,inactive: -79.7%,–
CN(C(=O)c1cccnc1)c1nnc(-c2ccccn2)s1,42.2%,–
Cc1ccc(C)c(Cn2nnc3c(=O)[nH]c(C4CCCN(C(=O)CC(C)C)C4)nc32)c1 (configuration not stated),34.8%,–

# Look-ups from above:
# `O=C(NCCc1ccccn1)c1ccc(OC(F)F)cc1` – Potency: active: 11.2 µM
# `COc1cc2ncnc(Nc3cccc(Cl)c3)c2cc1OC` – Potency: inactive
